Laboratory results published in paper PMC9876576.
Results are given in words; binding and its absence hold for the method and conditions named. Some entries that bind do so weakly or less than the wild type. Values belong to the binder of their own block, whether it stands above or below them.

Assays:
[1] = molecular target: T1, DnaJ homolog subfamily C member 5 (DNAJC5), wild type (human), Q9H3Z4; assay: SEC; HEK293T cells transfected with DNAJC5 lysed, clarified and subjected to gel filtration; fractions by SDS-PAGE and DNAJC5 immunoblot; conditions: remark: other sources report otherwise
T1 chain: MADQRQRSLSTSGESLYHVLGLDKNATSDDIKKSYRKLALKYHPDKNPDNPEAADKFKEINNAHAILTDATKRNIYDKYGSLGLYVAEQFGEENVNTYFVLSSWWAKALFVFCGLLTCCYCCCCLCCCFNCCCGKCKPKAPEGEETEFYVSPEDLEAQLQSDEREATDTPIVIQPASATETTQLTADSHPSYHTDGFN

[2] = molecular target: T1, DnaJ homolog subfamily C member 5 …; assay: SDS-resistant oligomers on SDS-PAGE and immunoblot; lysate of transfected HEK293T cells; anti-DNAJC5 or anti-FLAG immunoblot; loading samples with DTT up to 40 mM for the wild type; conditions: remark: other sources report otherwise
[3] = molecular target: T1, DnaJ homolog subfamily C member 5 …; assay: SDS-resistant oligomers on SDS-PAGE and immunoblot; conditioned medium of transfected HEK293T cells (supernatants of 1k, 10k, 100k x g for the wild type); anti-DNAJC5 or anti-FLAG immunoblot; conditions: remark: other sources report otherwise
[4] = molecular target: T2, human DNAJC5 expressed in mouse mDA neurons (human), Q9H3Z4; assay: SDS-resistant oligomers on SDS-PAGE and immunoblot; lysate of mouse mDA neurons (WT or expressing hDNAJC5) treated with DMSO or 100 nM BaFA1; immunoblot; conditions: remark: other sources report otherwise
T2 chain: T1 chain

[5] = molecular target: DNAJC5 ΔC40 (residues 151–198 deleted) (human) (UniProt Q9H3Z4); assay: SDS-resistant oligomers on SDS-PAGE and immunoblot; lysate of transfected HEK293T cells; anti-DNAJC5 or anti-FLAG immunoblot; loading samples with DTT up to 40 mM for the wild type
[6] = molecular target: DNAJC5 ΔC40 (residues 151–198 deleted) (human) (UniProt Q9H3Z4); assay: SDS-resistant oligomers on SDS-PAGE and immunoblot; conditioned medium of transfected HEK293T cells (supernatants of 1k, 10k, 100k x g for the wild type); anti-DNAJC5 or anti-FLAG immunoblot
[7] = molecular target: DNAJC5 (ΔJ), J domain deleted (Δ14–82) (human) (UniProt Q9H3Z4); assay: SDS-resistant oligomers on SDS-PAGE and immunoblot; lysate of transfected HEK293T cells; anti-DNAJC5 or anti-FLAG immunoblot; loading samples with DTT up to 40 mM for the wild type
[8] = molecular target: DNAJC5 ΔC30 (residues 169–198 deleted) (human) (UniProt Q9H3Z4); assay: as above
[9] = molecular target: DNAJC5 ΔC30 (residues 169–198 deleted) (human) (UniProt Q9H3Z4); assay: SDS-resistant oligomers on SDS-PAGE and immunoblot; conditioned medium of transfected HEK293T cells (supernatants of 1k, 10k, 100k x g for the wild type); anti-DNAJC5 or anti-FLAG immunoblot
[10] = molecular target: DNAJC5 ΔC20 (residues 179–198 deleted) (human) (UniProt Q9H3Z4); assay: SDS-resistant oligomers on SDS-PAGE and immunoblot; lysate of transfected HEK293T cells; anti-DNAJC5 or anti-FLAG immunoblot; loading samples with DTT up to 40 mM for the wild type
[11] = molecular target: DNAJC5 ΔC20 (residues 179–198 deleted) (human) (UniProt Q9H3Z4); assay: SDS-resistant oligomers on SDS-PAGE and immunoblot; conditioned medium of transfected HEK293T cells (supernatants of 1k, 10k, 100k x g for the wild type); anti-DNAJC5 or anti-FLAG immunoblot
[12] = molecular target: DNAJC5 ΔC10 (residues 189–198 deleted) (human) (UniProt Q9H3Z4); assay: SDS-resistant oligomers on SDS-PAGE and immunoblot; lysate of transfected HEK293T cells; anti-DNAJC5 or anti-FLAG immunoblot; loading samples with DTT up to 40 mM for the wild type
[13] = molecular target: DNAJC5 ΔC10 (residues 189–198 deleted) (human) (UniProt Q9H3Z4); assay: SDS-resistant oligomers on SDS-PAGE and immunoblot; conditioned medium of transfected HEK293T cells (supernatants of 1k, 10k, 100k x g for the wild type); anti-DNAJC5 or anti-FLAG immunoblot

B1: DnaJ homolog subfamily C member 5 (DNAJC5), wild type, Q9H3Z4-1 1-198 (protein)
chain: T1 chain
modifications: here or on the partner: palmitoylated (P-DNAJC5) and non-palmitoylated (NP-DNAJC5) forms both present; palmitoylated (P-DNAJC5) and non-palmitoylated (NP-DNAJC5) forms both present
- binding [1]: binds
- binding [2]: binds
- binding [3]: binds

B2: human DNAJC5 expressed in mouse mDA neurons, Q9H3Z4-1 1-198 (protein)
chain: T1 chain
- binding [4]: binds

B5: DNAJC5 ΔC30 (residues 169–198 deleted) (domain or fragment, UniProt Q9H3Z4-1 1-168)
chain: MADQRQRSLSTSGESLYHVLGLDKNATSDDIKKSYRKLALKYHPDKNPDNPEAADKFKEINNAHAILTDATKRNIYDKYGSLGLYVAEQFGEENVNTYFVLSSWWAKALFVFCGLLTCCYCCCCLCCCFNCCCGKCKPKAPEGEETEFYVSPEDLEAQLQSDEREATD
- binding [8]: binds
- binding [9]: binds

B7: DNAJC5 ΔC10 (residues 189–198 deleted) (domain or fragment, UniProt Q9H3Z4-1 1-188)
chain: MADQRQRSLSTSGESLYHVLGLDKNATSDDIKKSYRKLALKYHPDKNPDNPEAADKFKEINNAHAILTDATKRNIYDKYGSLGLYVAEQFGEENVNTYFVLSSWWAKALFVFCGLLTCCYCCCCLCCCFNCCCGKCKPKAPEGEETEFYVSPEDLEAQLQSDEREATDTPIVIQPASATETTQLTADS
- binding [12]: binds
- binding [13]: binds

Results, then the binder that gave them:

- binding [5]: binds
- binding [6]: binds
B3: DNAJC5 ΔC40 (residues 151–198 deleted) (domain or fragment, UniProt Q9H3Z4-1 1-150)
chain: MADQRQRSLSTSGESLYHVLGLDKNATSDDIKKSYRKLALKYHPDKNPDNPEAADKFKEINNAHAILTDATKRNIYDKYGSLGLYVAEQFGEENVNTYFVLSSWWAKALFVFCGLLTCCYCCCCLCCCFNCCCGKCKPKAPEGEETEFYV

- binding [7]: binds
B4: DNAJC5 (ΔJ), J domain deleted (Δ14–82) (protein, UniProt Q9H3Z4-1)
chain: MADQRQRSLSTSGGLYVAEQFGEENVNTYFVLSSWWAKALFVFCGLLTCCYCCCCLCCCFNCCCGKCKPKAPEGEETEFYVSPEDLEAQLQSDEREATDTPIVIQPASATETTQLTADSHPSYHTDGFN

- binding [10]: binds
- binding [11]: binds
B6: DNAJC5 ΔC20 (residues 179–198 deleted) (domain or fragment, UniProt Q9H3Z4-1 1-178)
chain: MADQRQRSLSTSGESLYHVLGLDKNATSDDIKKSYRKLALKYHPDKNPDNPEAADKFKEINNAHAILTDATKRNIYDKYGSLGLYVAEQFGEENVNTYFVLSSWWAKALFVFCGLLTCCYCCCCLCCCFNCCCGKCKPKAPEGEETEFYVSPEDLEAQLQSDEREATDTPIVIQPASA
